Results are given in words; binding and its absence hold for the method and conditions named. Some binding calls cover weakened binding; strength is not graded here.
T1: truncated MUS81 (amino acids 246-551) (human) (UniProt Q96NY9)
T1 sequence: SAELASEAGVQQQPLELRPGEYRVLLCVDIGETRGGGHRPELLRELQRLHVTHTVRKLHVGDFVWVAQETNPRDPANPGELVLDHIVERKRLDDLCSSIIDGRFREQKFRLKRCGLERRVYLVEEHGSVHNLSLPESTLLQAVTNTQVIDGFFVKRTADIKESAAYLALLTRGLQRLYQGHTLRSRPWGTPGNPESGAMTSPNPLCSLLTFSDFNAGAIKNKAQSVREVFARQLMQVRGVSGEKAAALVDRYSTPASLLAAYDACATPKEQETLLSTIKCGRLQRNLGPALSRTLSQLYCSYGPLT

T2: MUS81 (full length, human) (human) (UniProt Q96NY9)
T2 sequence: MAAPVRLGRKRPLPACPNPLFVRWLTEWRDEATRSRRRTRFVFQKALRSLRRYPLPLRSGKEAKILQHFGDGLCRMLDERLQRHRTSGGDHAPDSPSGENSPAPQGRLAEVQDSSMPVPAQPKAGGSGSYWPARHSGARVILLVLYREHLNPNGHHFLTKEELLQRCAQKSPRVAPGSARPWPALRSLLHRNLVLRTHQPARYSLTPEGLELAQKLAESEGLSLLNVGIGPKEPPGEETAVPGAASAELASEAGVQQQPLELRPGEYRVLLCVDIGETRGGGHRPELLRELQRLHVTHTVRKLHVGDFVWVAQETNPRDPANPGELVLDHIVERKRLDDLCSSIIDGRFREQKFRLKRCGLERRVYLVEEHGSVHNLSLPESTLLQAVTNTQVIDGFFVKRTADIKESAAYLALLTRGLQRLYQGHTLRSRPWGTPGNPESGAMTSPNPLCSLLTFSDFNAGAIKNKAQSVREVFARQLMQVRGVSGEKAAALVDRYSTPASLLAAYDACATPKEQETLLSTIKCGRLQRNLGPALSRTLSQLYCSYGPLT


Key:
[1] = target: T1, truncated MUS81 (amino acids 246-551) (human); assay: co-purification; both proteins co-expressed in E. coli; lysate passed over Q Sepharose and SP Sepharose, then His-Select Nickel Affinity Gel and heparin; the complex was kept through all steps
[2] = target: T2, MUS81 (full length, human) (human); assay: as above

| binding [1] | binding [2] | Binder |
| --- | --- | --- |
| binds |  | truncated EME1 (amino acids 178-570) (domain or fragment, UniProt Q96AY2 178-570) GQSSSLAVTKTNSDILPPQKKTKPSQKVQGRGSHGCRQQRQARQKESTLRRQERKNAALVTRMKAQRPEECLKHIIVVLDPVLLQMEGGGQLLGALQTMECRCVIEAQAVPCSVTWRRRAGPSEDREDWVEEPTVLVLLRAEAFVSMIDNGKQGSLDSTMKGKETLQGFVTDITAKTAGKALSLVIVDQEKCFSAQNPPRRGKQGANKQTKKQQQRQPEASIGSMVSRVDAEEALVDLQLHTEAQAQIVQSWKELADFTCAFTKAVAEAPFKKLRDETTFSFCLESDWAGGVKVDLAGRGLALVWRRQIQQLNRVSLEMASAVVNAYPSPQLLVQAYQQCFSDKERQNLLADIQVRRGEGVTSTSRRIGPELSRRIYLQMTTLQPHLSLDSAD |
|  | binds | EME1 (full length, human) (protein, UniProt Q96AY2 1-570) MALKKSSPSLDSGDSDSEELPTFAFLKKEPSSTKRRQPEREEKIVVVDISDCEASCPPAPELFSPPVPEIAETVTQTQPVRLLSSESEDEEEFIPLAQRLTCKFLTHKQLSPEDSSSPVKSVLDHQNNEGASCDWKKPFPKIPEVPLHDTPERSAADNKDLILDPCCQLPAYLSTCPGQSSSLAVTKTNSDILPPQKKTKPSQKVQGRGSHGCRQQRQARQKESTLRRQERKNAALVTRMKAQRPEECLKHIIVVLDPVLLQMEGGGQLLGALQTMECRCVIEAQAVPCSVTWRRRAGPSEDREDWVEEPTVLVLLRAEAFVSMIDNGKQGSLDSTMKGKETLQGFVTDITAKTAGKALSLVIVDQEKCFSAQNPPRRGKQGANKQTKKQQQRQPEASIGSMVSRVDAEEALVDLQLHTEAQAQIVQSWKELADFTCAFTKAVAEAPFKKLRDETTFSFCLESDWAGGVKVDLAGRGLALVWRRQIQQLNRVSLEMASAVVNAYPSPQLLVQAYQQCFSDKERQNLLADIQVRRGEGVTSTSRRIGPELSRRIYLQMTTLQPHLSLDSAD |

From publication PMC12990037, “Discovery of Two Structurally Distinct Classes of Inhibitors Targeting the Nuclease MUS81 and Enhancing Efficacy of Chemotherapy in Cancer Cells” (Journal of Medicinal Chemistry, 2026)
